The values that follow come from paper PMC3554631, “Structural Basis of a Histone H3 Lysine 4 Demethylase Required for Stem Elongation in Rice” (PLoS Genetics, 2013).

By UniProt entry, the sequences of proteins in these tests, tags left out. Residues count along the entry.
UniProt Q53WJ1, residues 139-498: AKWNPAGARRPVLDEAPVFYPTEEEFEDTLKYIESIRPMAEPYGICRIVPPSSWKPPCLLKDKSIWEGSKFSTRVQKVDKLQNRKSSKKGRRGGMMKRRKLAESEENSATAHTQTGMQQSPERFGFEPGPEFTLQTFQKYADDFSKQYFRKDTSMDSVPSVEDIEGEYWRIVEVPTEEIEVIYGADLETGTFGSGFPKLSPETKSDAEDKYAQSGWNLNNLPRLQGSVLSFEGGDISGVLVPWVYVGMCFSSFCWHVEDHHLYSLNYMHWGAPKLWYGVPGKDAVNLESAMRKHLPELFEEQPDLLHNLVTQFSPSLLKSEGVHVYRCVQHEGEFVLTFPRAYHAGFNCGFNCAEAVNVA

Results are given in words; binding and its absence hold for the method and conditions named.

For this test, the target named is c-JMJ703, catalytic core domain of JMJ703 (amino acids 139 to 498) (rice) (UniProt Q53WJ1). Nature of the test: SEC; c-JMJ703 (20 mg/mL) on Superdex 75 10/300 GL in 20 mM HEPES pH 7.5, 150 mM NaCl; retention volume 11.5 mL; both purified. In general terms: SEC sorts molecules by how far they enter the pores of the column.

In the case of “c-JMJ703, catalytic core domain of JMJ703 (amino acids 139 to 498) (from UniProt Q53WJ1 139-498) (domain or fragment)”, the binding result was “no binding (tested: 20 mg/mL)”.
